Assay results published in the supplement of paper PMC11348887.
Counter-ions that a name gives are not always drawn. This is one part of the list. Most entries show no effect beyond the scatter of the controls.

tested on: hPSC-derived cortical neurons (WA09); experiment: KCl-induced FOS+/EGR-1+ double-positive nuclei fraction z-score (KCl minus unstimulated); higher = stronger activity-induced IEG response; conditions: 5 µM; treatment: days 7-14 after plating, readout day 21

Structure (SMILES)	KCl-induced FOS+/EGR-1+ double-positive nuclei fraction z-score
CNC(=C[N+](=O)[O-])NCCSCc1csc(CN(C)C)n1 [Nizatidine]	0.925
C#C[C@]1(OC(C)=O)CC[C@H]2[C@@H]3CCC4=C[C@@H](OC(C)=O)CC[C@@H]4[C@H]3CC[C@@]21C [Ethynodiol diacetate]	0.167
C[C@@H](O[C@H]1OCCN(Cc2nn(P(=O)(O)O)c(=O)[nH]2)[C@H]1c1ccc(F)cc1)c1cc(C(F)(F)F)cc(C(F)(F)F)c1 [Fosaprepitant dimeglumine salt]	-0.225
CCOP(=O)(OCC)C(=Cc1cc(C(C)(C)C)c(O)c(C(C)(C)C)c1)P(=O)(OCC)OCC	-0.0197
Nc1nc(=S)c2ncn([C@H]3C[C@H](O)[C@@H](CO)O3)c2[nH]1	0.513
CN(C)S(=O)(=O)c1ccc2c(c1)/C(=C/c1cc3c([nH]1)CCCC3)C(=O)N2	0.74
O=C(O)c1ccccc1C(=O)Nc1ccc(-c2ccccc2)cc1 [Kartogenin]	0.631
C[C@H](CS)C(=O)N1CCC[C@H]1C(=O)O [Captopril]	3.78
CC[C@H]1OC(=O)[C@H](C)[C@@H](O[C@H]2C[C@@](C)(OC)[C@@H](O)[C@H](C)O2)[C@H](C)[C@@H](O[C@@H]2O[C@H](C)C[C@H](N(C)C)[C@H]2O)[C@](C)(O)C[C@@H](C)/C(=N\OCOCCOC)[C@H](C)[C@@H](O)[C@]1(C)O [Roxithromycin]	-0.218
N#CN=C(NCCCCCCOc1ccc(Cl)cc1)Nc1ccncc1	-2.23
Cc1c(C(=O)N2CCOc3ccc(-c4ccc(N)nc4)cc3C2)ccc(S(C)(=O)=O)c1F	-0.314
COc1ccccc1OCC(O)CN1CCN(CC(=O)Nc2c(C)cccc2C)CC1 (stereo not drawn) [Ranolazine 2HCl]	-0.206
Oc1ccc(C2CNCCc3c2cc(O)c(O)c3Cl)cc1 (stereo not drawn) [Fenoldopam mesylate]	-0.248
COc1ccccc1N1CCN(CC(O)COc2cccc3ccccc23)CC1 (stereo not drawn) [Naftopidil]	-0.786
CCCCN1CCCC[C@H]1C(=O)Nc1c(C)cccc1C [Levobupivacaine HCl]	1.33
Cc1nn(C)c(COc2ccc(N3CCN(S(=O)(=O)N(C)C)CC3)cc2)c1-c1cccc2c(CCCOc3cccc4ccccc34)c(C(=O)O)n(CCN3CCOCC3)c12	-0.27
O=C(NC[C@H](O)CO)c1ccncc1Nc1ccc(I)cc1F	-1.29

Structure (SMILES)	KCl-induced FOS+/EGR-1+ double-positive nuclei fraction z-score
COc1cc(OC)c2c(=O)[nH]c(-c3cc(C)c(OCCO)c(C)c3)nc2c1	0.344
CC(C)C[C@H](NC(=O)[C@H]1O[C@@H]1C(=O)O)C(=O)NCCCCN=C(N)N	-0.947
CN1CCN(C2CCN(C(=O)Nc3cc(Oc4ccc(NC(=O)C5(C(=O)Nc6ccc(F)cc6)CC5)c(F)c4)ccn3)CC2)CC1 [Golvatinib (E7050)]	-0.728
CC(C)c1cc(C(C)C)c(CC(=O)NS(=O)(=O)Oc2c(C(C)C)cccc2C(C)C)c(C(C)C)c1 [Avasimibe]	2.71
CS(=O)(=O)c1cccc(CNc2nc(Nc3ccc4c(c3)CCC(=O)N4)ncc2C(F)(F)F)c1	0.0273
CN(C)C/C=C/C(=O)Nc1cc2c(Nc3ccc(F)c(Cl)c3)ncnc2cc1O[C@H]1CCOC1 [Afatinib (BIBW2992)]	-0.154
Nc1nc2[nH]cc(CCc3ccc(C(=O)N[C@@H](CCC(=O)O)C(=O)O)cc3)c2c(=O)[nH]1 [Pemetrexed]	1.54
O=c1c2ccccc2nc2n1CCc1c-2[nH]c2ccccc12 [Rutaecarpine]	0.551
CCN(CC)C(=O)c1cccc(C)c1	1.18
NC(=O)c1ncn([C@@H]2O[C@H](CO)[C@@H](O)[C@H]2O)n1 [Ribavirin]	0.653
CC(C)(C(=O)O)c1ccc(C(O)CCCN2CCC(C(O)(c3ccccc3)c3ccccc3)CC2)cc1 (stereo not drawn) [Fexofenadine HCl]	-1.22
COc1cc2c(cc1OC)CC(=O)N(CCCN(C)C[C@H]1Cc3cc(OC)c(OC)cc31)CC2 [Ivabradine HCl]	-0.367
CC1(C)S[C@@H]2[C@H](NC(=O)[C@H](NC(=O)N3CCN(S(C)(=O)=O)C3=O)c3ccccc3)C(=O)N2[C@H]1C(=O)O [Mezlocillin Sodium]	0.0804
Nc1ccc(S(=O)(=O)Nc2ccccn2)cc1 [Sulfapyridine]	-0.495
CN1C(C(=O)Nc2ccccn2)=C(O)c2sc(Cl)cc2S1(=O)=O [Lornoxicam]	0.203
Nc1ccccc1NC(=O)c1ccc(CNc2nccc(-c3cccnc3)n2)cc1 [Mocetinostat (MGCD0103)]	-0.392

Ordered by heavy-atom count (rising): part of the list above.
Structure (SMILES)	KCl-induced FOS+/EGR-1+ double-positive nuclei fraction z-score
C[C@H](CS)C(=O)N1CCC[C@H]1C(=O)O [Captopril]	3.78
O=c1c2ccccc2nc2n1CCc1c-2[nH]c2ccccc12 [Rutaecarpine]	0.551
N#CN=C(NCCCCCCOc1ccc(Cl)cc1)Nc1ccncc1	-2.23
